# Percent effect of library compounds

The values are deposited in ChEMBL (CHEMBL3988442, “University of Dundee, Small-Polar-MMV Screening Library” (2021)).

Each number is a percent effect as filed. The record does not define 0% and 100%; most values in the screen are far below 50% and negative numbers occur (in some assays of this library far below -100). The compounds are a random part of those screened.

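Assay of Toxoplasma gondii numbers, read through their beta-galactosidase reporter with a colour substrate. Concentration: 50 µM. Higher reads as fewer parasites (inferred from which compounds were picked for retests). About 18,000 compounds were tested under these conditions; 0.94% (about 170) showed 50% or more at least once.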

compound	Percent Effect
CCOc1ncccc1CNC(=O)c1snc(O)c1Cl	-10.16
CC(NS(=O)(=O)c1cccc(C#N)c1)c1ccncc1 (stereo unspecified)	-14.77
NS(=O)(=O)CC1CCOCC1	1.098
Cc1ccc(CN2CCNC(=O)CC2)c(Br)c1	-5.708
NCC(C(=O)N1CCOCC1)c1ccccc1 (stereo unspecified)	32.79
O[C@H]1C[C@@H](c2cc(NCCc3cn[nH]c3)ncn2)C1	-12.08
CC(CNC(=O)C1=NNC(=O)CC1)Oc1cccnc1 (stereo unspecified)	2.962
COC(=O)C(C)N(Cc1ccccn1)C1CC1 (stereo unspecified)	-1.513
CNC(=O)CN1CCC(NC(=O)c2cccs2)CC1	-6.649
C1COC(CN2CCNCC2)C1 (stereo unspecified)	-0.5534
CCNc1ccc(C(F)(F)F)cn1	49.09
N#CCCCNCc1ccccc1	3.873
COc1ccc(S(=O)(=O)N2CCC(=O)C(C)C2)cc1C (stereo unspecified)	-35.71
COc1ccc2nc(SCN3CCCCC3=O)[nH]c2c1	29.11
CCn1c(CCNC(=O)CCCO)nc2ccccc21	-2.967
CNC(=O)CN1CCC(OCCCc2ccccc2)C1 (stereo unspecified)	5.737
CC(=O)Nc1cccc(N2CC(C(N)=O)CC2=O)c1 (stereo unspecified)	1.653
Cc1cc(NC(=O)CN2CCCC(C)C2)n(C)n1 (stereo unspecified)	-3.858
CCc1nnc(CNC(=O)[C@@H](N)[C@@H](C)CC)s1	-0.2293
NCc1cccc(OCc2ccccn2)c1	-1.325
COc1cc(C#N)ccc1S(=O)(=O)N1CCCC1CN (stereo unspecified)	-14.98
Cc1nc(=N)c(C)c(C)[nH]1	12.62
CC(C)c1ccnc(N2CCNCC2)n1	-3.706
CCCn1cc(CNc2ccc(F)cn2)cn1	5.606
NCc1cc(Oc2cccc(F)c2)ccn1	-7.93
CCNC(=O)C1CCN(Cc2cc(C)on2)CC1	-14.46
CC(C)[C@@H](CO)NCc1ccc(F)c(C#N)c1	-19.42
CCOC(=O)Nc1ccc2c(c1)OCCO2	-24.54
CN(C)C(CNC(=O)Nc1cccnc1)c1ccco1 (stereo unspecified)	0.6462
COC(C)CCC(=O)NCc1cn2ccccc2n1 (stereo unspecified)	46.96
COc1ccc(C(CO)N(C)Cc2ccncc2)cc1 (stereo unspecified)	7.987
Cc1ncccc1CN1CC(C)OCC1(C)C (stereo unspecified)	4.636
NC(=O)NC1CCCNC1 (stereo unspecified)	25.03
Cc1ccc(CC(=O)NC2(C)CCS(=O)(=O)C2)cc1 (stereo unspecified)	2.117
O=C(NCc1nnc[nH]1)c1cccc(Br)c1Cl	-5.192
O=C(NC1COC2(CCNCC2)C1)c1cc[nH]n1 (stereo unspecified)	-13.24
N#CCc1ccc(CN)cc1	3.688
CCCc1nc(CN2Cc3ncccc3C2=O)cs1	-1.316
O=C(Cc1ccc(F)cc1F)NCC1CCNCC1	6.978
CCC1(CN)OCCc2ccccc21 (stereo unspecified)	4.501
Cc1ccc(Cl)cc1NC(=O)CN1CCNC(=O)C1	47.59
Cc1ccc(-c2noc([C@H](N)CCCN)n2)nn1	11.87
CCn1nnc(NC(=O)Cc2ccc(Cl)cc2)n1	-18.92
CCc1cc(C(=O)NC(CC)[C@H]2C[C@@H](O)C2)[nH]n1 (stereo partly specified)	-4.464
Cn1cc(Br)c(CN2C(=O)c3ccccc3C2=O)n1	11.31
CCN(CC)C(=O)c1cc(O)nc2c(C)cccc12	-14.36
NS(=O)(=O)CCNC(=O)c1ccc(-c2cccs2)s1	1.485
CCN(CC)c1ncccc1CNC(=O)C1CCCO1 (stereo unspecified)	5.223
CC(=O)c1ccc(C(=O)N2CCOCC2C#N)cc1 (stereo unspecified)	5.454
CCCNC(=O)C(C)N (stereo unspecified)	-6.802
CC(C)(C)NC(=O)CSC1CCOCC1	35.2
CC(C)(C)C(=O)NCC(=O)Nc1ccccn1	2.665
CNc1nnc(SCc2ncc(C)o2)s1	-1.305
COc1ccccc1-c1ncc(CN)s1	3.758
CCc1[nH]nc(N)c1-c1ccc2c(c1)OCO2	-3.705
CC(NCCCN1CCCC1)C(=O)NC1CCCC1 (stereo unspecified)	4.859
CCS(=O)(=O)N(C)Cc1nc(C(C)C)no1	16.42
NC(=O)c1cccc(NC2CCCCNC2=O)c1 (stereo unspecified)	-0.9566
Cc1noc(OCC(=O)N(C)C2CC2)n1	4.21
CN1CCC(OCCCNC(=O)c2ccc[nH]2)CC1	2.365
Cc1ccc(C)c(NC(=O)CN2CCNC(=O)C2)c1	-30.81
Cc1cc(C)n2nc(CC(=O)NCC(F)(F)F)nc2n1	-5.22
O=C(CCN1CCCC1CO)NCc1ccccc1Cl (stereo unspecified)	38.62
Cn1nc(Br)c2c(N)ncnc21	-6.6
CS(=O)(=O)N1CCSc2ccc(Cl)cc21	2.531
CCOC(=O)NCCC(=O)N1CCCCCC1	12.12
CS(=O)(=O)Cc1ccc(CN)cc1	1.059
COc1ccc2c(c1)CCCN2CC(=O)NC(N)=O	-4.15
CC(=O)N1CCN(CC(O)COc2ccccc2)CC1 (stereo unspecified)	8.721
CCOc1nn(C)cc1N	-6.062
Cc1nn(CCO)c(C)c1CN1CCCC(C#N)C1 (stereo unspecified)	-3.327
Cc1ccc(CNCCCOc2ccccn2)o1	-8.942
CCNC(=O)N[C@@H]1CNC[C@H]1OC	-0.07905
CC[C@H](C)[C@H](N)C(=O)NCCCc1ccccn1	-7.414
COCCCN1CCC(CNc2ncncn2)C1 (stereo unspecified)	-14.55
NC1CC(c2cc(NCCN3CCOCC3)ncn2)C1 (stereo unspecified)	8.839
NC(=O)NCCCN1CCc2ccccc2C1	-3.514
Cc1cc(N2CCCN(CC3CCNC3)CC2)ccn1 (stereo unspecified)	-7.924
COc1cccc(CNc2cncc(SC)n2)n1	17.54
O=C(Cc1cccc(O)c1)N(CCO)CC1CC1	12.14
CCN(CC)S(=O)(=O)CCNC(=O)c1nccnc1N	-21.27
CNCc1nnc(C)s1	0.6037
N#Cc1cnc(SCC(=O)Nc2nccs2)nc1N	-2.925
O=C(c1cnsn1)N1CC=C(c2ccccc2)CC1	3.694
Cc1ncsc1C(=O)N1CCOC(C)C1 (stereo unspecified)	-2.328
Cc1nnnn1-c1cccc(O)c1	-19.77
Nc1nccnc1C(=O)N(CC1CC1)c1ccccc1	-1.112
O=C(CN(CC1CCOC1)C1CC1)NC1CC1 (stereo unspecified)	-0.6495
CCN1CCC(NC(=O)c2ccccc2OC)CC1	-13.73
COCC1CCN(C(=O)CCC2CCCO2)CC1 (stereo unspecified)	-2.271
CN(C(=O)Cc1c[nH]c(=O)[nH]c1=O)C1CCSCC1	1.993
CSC(C)(C)CNC(=O)N(C)CC1CCCO1 (stereo unspecified)	-2.982
CC(N)c1cc(F)ccc1N1CCC(O)CC1 (stereo unspecified)	14.71
O=C(N1CCC1)C1(c2ccccc2)CC1	-7.571
CCNc1nc(C)c(C(=O)N2CC(C)(C)[C@@](C)(O)C2)s1	0.1331
N#Cc1cccnc1NCc1ccc2c(c1)OCO2	-0.08039
CC(C)OCCCNC(=O)CNC(=O)C1CCCCC1	4.621
COC(=O)c1cc(C2CC2)n2nccc2n1	-3.105
Cc1ncsc1C(=O)Nc1cc(Br)c(=O)n(C)c1	-20.76
CS(=O)(=O)NCCSCC(O)c1ccccc1 (stereo unspecified)	13.36
CC(C)(C)OC(=O)N1C[C@@H](N)[C@H](O)C1	-10.71

9 of the entries, repeated:

compound,Percent Effect
Cc1noc(OCC(=O)N(C)C2CC2)n1,4.21
CC(C)(C)OC(=O)N1C[C@@H](N)[C@H](O)C1,-10.71
CN1CCC(OCCCNC(=O)c2ccc[nH]2)CC1,2.365
CCNc1ccc(C(F)(F)F)cn1,49.09
CCn1c(CCNC(=O)CCCO)nc2ccccc21,-2.967
COC(C)CCC(=O)NCc1cn2ccccc2n1 (stereo unspecified),46.96
C1COC(CN2CCNCC2)C1 (stereo unspecified),-0.5534
CC(NS(=O)(=O)c1cccc(C#N)c1)c1ccncc1 (stereo unspecified),-14.77
Cc1ncccc1CN1CC(C)OCC1(C)C (stereo unspecified),4.636